# Source: patent US9175037B2 (Takeda Pharmaceutical Company Limited, priority 2009, dated 2015)
# Assay: Fmoc solid-phase peptide synthesis; Sieber amide resin; HBTU/HOBt; DCC/HOBt; DIPCDI/HOAt
# Details: whole synthesis, scale 0.02 mmol
substance,measurement,value
"β-Ala0,Arg1-NMU-8",isolated mass,11.2 mg
